Results of single-concentration screens

Measurements from “University of Dundee, Small-Polar-MMV Screening Library” (2021), ChEMBL document CHEMBL3988442.

A: 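Whole-parasite assay of Trypanosoma brucei over 72 hours; the read-out is not stated. Compounds at 30 µM. The record gives no direction; compounds that gave an IC50 in retests scored well above the rest, so higher reads as stronger inhibition. Values scatter widely below zero; nearly all retest evidence comes from the higher of the two concentrations used. About 64,000 compounds were tested under these conditions; 1.5% (about 940) showed 50% or more at least once.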
B: 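Assay of Toxoplasma gondii numbers, read through their beta-galactosidase reporter with a colour substrate. Concentration: 10 µM. Higher reads as fewer parasites (inferred from which compounds were picked for retests). Of about 67,000 compounds tested this way, about 260 (0.38%) reached 50% or more in at least one test.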
C: 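Cell assay of Leishmania donovani living inside macrophages; the read-out is not stated. Tested at 30 µM. The record gives no direction; compounds that gave an IC50 in retests scored well above the rest, so higher reads as stronger inhibition. About 69,000 compounds were tested under these conditions; 1.5% (about 1,000) showed 50% or more at least once.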

Results are given as percent effect. How 0% and 100% were set is not recorded. Most values in the screen are low, and negative values occur. Compounds were drawn at random from those tested, without regard to their results. A dash means the value is not listed here; it may have been measured.

| Compound | A | B | C |
|---|---|---|---|
| `O=C(CS(=O)(=O)c1ccccc1Cl)NC1CCCCNC1=O` (centres unmarked) | 9.476% | 4.341% | 25.08% |
| `CNC(=O)C1CN(C)CCN1c1nc(C)cc(C)n1` (centres unmarked) | -19.22% | 16.98% | -10.24% |
| `O=C(C[S+]([O-])Cc1ccc(Cl)cc1Cl)N1CCc2sccc2C1` (centres unmarked) | -34.72% | -54.35% | -29.43% |
| `COc1ccc2[nH]c(CNc3cc(C4CCNCC4)nc(C)n3)cc2c1` | -31.18% | -1.418% | -59.5% |
| `CN(C)C(=O)N1CCC2(C1)CN(c1cccnc1)C(=O)CN2C` (centres unmarked) | -7.746% | 10.5% | 12.1% |
| `Cc1cc(C(=O)N2CCC(N3CCNC3=O)CC2)nn1C(C)(C)C` | -21.53% | 14.77% | 22.32% |
| `O=c1ccc(-c2ccccc2F)nn1CCN1CCCS1(=O)=O` | -9.052% | -0.5848% | 0.4039% |
| `Cc1cc(NC(=O)C(C)Cn2cc(Br)cn2)no1` (centres unmarked) | - | 5.838% | -16.85% |
| `O=C(COc1ccc(Cl)cc1)Nc1cnc(N2CCOCC2)nc1` | -8.323% | -13.37% | 33.4% |
| `CCC1CN(C(=O)c2cccc(O)c2)CCC(=O)N1Cc1ccccc1` (centres unmarked) | -44.96% | 11.94% | 26.3% |
| `CCNc1ncc(C(=O)NC2CCc3ccccc3C2)cn1` (centres unmarked) | -40.85% | 1.655% | -23.23% |
| `CSc1ccccc1CN1CCn2nc(CNC(=O)N(C)C)cc2C1` | -76.74% | 0.5975% | -23.46% |
| `O=C(NCc1ccncc1)N1CCSCC1c1ccc(Cl)cc1` (centres unmarked) | -14.86% | 4.987% | 9.348% |
| `CCCn1ccc(C(=O)N2CCC(C)CC2)n1` | -15.89% | 1.32% | 25.5% |
| `CCS(=O)(=O)c1ccc(N2CCC(NC(=O)NC(C)CO)CC2)cc1` (centres unmarked) | -13.44% | 0.8597% | 26.74% |
| `CCOc1cccc(CNc2cnn(CC(C)C)c2CC)c1` | -38.43% | 11.13% | 33.63% |
| `COc1ccc2c(c1)OCC(Cc1ccnc(N)n1)C2` (centres unmarked) | -10.25% | 15.67% | 11.47% |
| `CC(C)CNC(=O)CNC(=O)Nc1cccc(Cl)c1-n1cccn1` | -43.6% | 3.024% | 11.71% |
| `CC(NCCn1cccn1)c1cc(F)ccc1F` (centres unmarked) | -40.12% | -22.39% | 6.858% |
| `CCCOCC1CCN(C(=O)Cn2cccc(C(F)(F)F)c2=O)C1` (centres unmarked) | -11.47% | -2.095% | -15.07% |
| `CC(C)C(=O)NCCNC(=O)C(C)OCC(F)(F)F` (centres unmarked) | -19.07% | 4.543% | 28.18% |
| `O=C(c1ccsc1)N1CCc2c(COCc3ccncc3)cncc2C1` | 3.448% | 8.255% | 12.96% |
| `CCCn1[nH]cc/c1=N\C(=O)CN1CCCC1c1cccn1C` (centres unmarked) | 7.257% | 12.46% | 33.94% |
| `O=C1N(Cc2cccc(F)c2F)CCCC1(O)CN1CCCOCC1` (centres unmarked) | 38.39% | 5.286% | 27.91% |
| `COCc1cn(CC2CCN(Cc3nc(C)c[nH]3)CC2)nn1` | -12.96% | 8.824% | 16.73% |
| `CN(Cc1ccc(Cl)cc1)C(=O)Nc1cnn(CC(N)=O)c1` | -42.2% | 0.3544% | -8.969% |
| `Oc1nc(-c2cnccn2)nc2c1CCN(Cc1ccccn1)C2` | 10.52% | 13.13% | -0.4064% |
| `Cc1nc(CN2CCN(C(=O)Cc3cccc(Cl)c3)CC2)no1` | -21.07% | 1.681% | 7.333% |
| `CCN1CCN(C)C2(CCN(Cc3ccc(C)o3)CC2)C1=O.O=C(O)C(F)(F)F.O=C(O)C(F)(F)F` | -15.46% | -17.89% | 16.89% |
| `Cc1ccc(C2(C(=O)NCCCn3cccn3)CCOCC2)cc1` | -18.62% | 5.859% | -68.73% |
| `c1ccc2cc(OCCCN3CCn4c(nnc4C4CC4)C3)ccc2c1` | 21.11% | -5.787% | 14.04% |
| `OCC(CO)Nc1ccc2ccc(Cl)c(Cl)c2n1` | -24.47% | 0.4113% | 13.86% |
| `Cc1nn(C(C)C)c(C)c1NC(=O)c1ccccc1` | 36.64% | 14.23% | 30.23% |
| `Cc1cc(NCc2ccccc2CN2CCCCC2)n2ncnc2n1` | -72.06% | 11.46% | 7.928% |
| `Clc1ccc2c(c1)C=C(CNC1CCc3ncnn3C1)CO2` (centres unmarked) | 1.885% | 3.019% | 25.68% |
| `Cn1cccc1C(=O)NCc1ccnc(C2CCCOC2)n1` (centres unmarked) | 6.332% | -1.48% | 9.921% |
| `COc1cc2c(nn1)CCN(Cc1nc(Cc3ccccc3)no1)C2` | -0.08455% | -10.32% | 16.63% |
| `Cc1cc(NC(=O)CCN2CCn3c(nnc3C3CC3)C2)no1` | -4.037% | 2.316% | -4.893% |
| `Cc1ccccc1S(=O)(=O)N1CCC(c2[nH]ncc2C)C1` (centres unmarked) | 24.59% | -7.893% | 6.885% |
| `CC(=O)N(Cc1ncc(C(C)C)o1)C1CCN(Cc2cc(C)on2)C1` (centres unmarked) | - | 33.2% | 4.741% |
| `Cc1ncccc1OC1(C(=O)NCCC2CCCN2C)CCNCC1` (centres unmarked) | -18.54% | 1.797% | -6.485% |
| `Cc1ccc(-c2noc(CN3CCc4cncnc4C3)n2)cc1` | - | 2.889% | -20.8% |
| `COCCNC(=O)c1cc(OC)c2ccoc2c1` | -26.92% | 4.872% | 34% |
| `COc1c(C2CCCN2C(=O)c2ccc(C#N)cc2)c(C)nn1C` (centres unmarked) | - | 9.085% | 16.56% |

6 of the entries, repeated:

- Clc1ccc2c(c1)C=C(CNC1CCc3ncnn3C1)CO2 (centres unmarked) | A: 1.885%; B: 3.019%; C: 25.68%
- CSc1ccccc1CN1CCn2nc(CNC(=O)N(C)C)cc2C1 | A: -76.74%; B: 0.5975%; C: -23.46%
- COc1ccc2[nH]c(CNc3cc(C4CCNCC4)nc(C)n3)cc2c1 | A: -31.18%; B: -1.418%; C: -59.5%
- Cc1nc(CN2CCN(C(=O)Cc3cccc(Cl)c3)CC2)no1 | A: -21.07%; B: 1.681%; C: 7.333%
- COCc1cn(CC2CCN(Cc3nc(C)c[nH]3)CC2)nn1 | A: -12.96%; B: 8.824%; C: 16.73%
- O=C(CS(=O)(=O)c1ccccc1Cl)NC1CCCCNC1=O (centres unmarked) | A: 9.476%; B: 4.341%; C: 25.08%